# Results deposited as PubChem BioAssay AID1259305 (Sanger Institute, 2017).
# Screen: 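Find kinase knock-downs that boost drug killing of colorectal cancer cells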 (follow-up of hits)
# Cells: human DIFI colorectal cancer cells
# Knock-down reagent: single siRNA against human genes
# Conditions: BYL719 1 µM, cetuximab 5 µg/ml or trametinib 10 nM, or DMSO vehicle, added one day after transfection; exposure time not given
# Measured: 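Cell survival as a ratio to a non-targeting siRNA control pool, mean of replicates; per-drug synergy scores set knock-down plus drug against each alone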
# Scale: synergy score with BYL719 and synergy score with Cetuximab and synergy score with Trametinib: higher = stronger combined killing than expected
# Rule for the call: 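An siRNA counts as synergistic (synthetic lethal) when its synergy score tops 0.10 for at least one of the three drugs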
# The deposit covers 160 reagents; below is an unselected part. 96 of all reagents (60%) count as active. 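Each call covers one siRNA sequence in one cell line only; gene-level confirmation needs agreement across siRNAs and lines.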 Unmarked entries are inactive. The numbers tell different reagents against one gene apart. Further read-outs or replicates are left out here. The record does not give: the amount of reagent, the time to read-out.
gene knocked down,siRNA no.,synergy score with BYL719,synergy score with Cetuximab,synergy score with Trametinib
COASY,1,0.00555,-0.0365,0.0594
COASY,2,0.102 (active),-0.0289,-0.0173
COASY,3,0.0751 (active),0.09,0.126
COASY,4,0.128 (active),0.11,0.153
PINK1,1,-0.244,0.0396,-0.0549
PINK1,2,0.179 (active),0.189,0.262
PINK1,3,0.195 (active),0.147,0.236
PINK1,4,0.011 (active),0.0742,0.159
AK2,1,-0.0135 (active),0.205,0.126
AK2,2,-0.0152 (active),0.234,0.191
AK2,3,-0.248,-0.0088,-0.0441
AK2,4,-0.0623 (active),0.246,0.329
MAPK4,1,0.0211,0.0394,-0.0394
MAPK4,2,0.0559,0.0287,0.0918
MAPK4,3,-0.00201,0.0844,0.0751
MAPK4,4,0.077,0.0162,0.0607
PLK1,1,0.0604,0.023,0.0873
PLK1,2,0.077,0.00297,0.0512
PLK1,3,0.0915,0,0.037
PLK1,4,0.0697 (active),0.0636,0.108
PIM1,1,0.0589 (active),0.0996,0.167
PIM1,2,0.0676 (active),0.0804,0.154
PIM1,3,-0.0434 (active),0.114,0.195
PIM1,4,0.06,0.0248,0.0794
HSPB8,1,0.0689 (active),0.145,0.117
HSPB8,2,0.0179,0.0123,-0.0172
HSPB8,3,0.0766 (active),0.0388,0.17
HSPB8,4,0.0531 (active),0.0246,0.141
BMPR2,1,-0.0458 (active),0.117,-0.167
BMPR2,2,0.0724 (active),0.142,0.208
BMPR2,3,-0.0366,-0.00158,-0.00237
BMPR2,4,-0.199,0.096,-0.114
EPHA6,1,0.053 (active),0.00376,0.107
EPHA6,2,0.143 (active),0.146,0.135
EPHA6,3,0.0807,-0.031,0.0923
EPHA6,4,0.0845,0.0126,-0.0149
IRAK1,1,0.0508 (active),-0.0168,0.297
IRAK1,2,0.0108,0.0171,-0.127
IRAK1,3,0.125 (active),0.154,0.165
IRAK1,4,0.328 (active),0.0898,0.0399
NR2F2,1,-0.118 (active),0.0786,0.155
NR2F2,2,-0.239,0.00583,-0.0471
NR2F2,3,-0.172 (active),0.0925,0.108
NR2F2,4,0.049 (active),0.231,0.232
KCNH8,1,0.269 (active),0.11,0.194
KCNH8,2,0.199 (active),0.171,0.194
KCNH8,3,-0.00749,-0.00838,0.0575
KCNH8,4,0.107 (active),0.167,0.228
STK36,1,0.00295 (active),0.0578,0.333
STK36,2,-0.0425 (active),0.122,0.14
STK36,3,-0.0326,0.0377,0.0195
STK36,4,0.136 (active),-0.0318,0.0539

7 entries from above, ordered by “synergy score with Trametinib”, low to high.
gene knocked down,siRNA no.,synergy score with BYL719,synergy score with Cetuximab,synergy score with Trametinib
AK2,3,-0.248,-0.0088,-0.0441
AK2,1,-0.0135 (active),0.205,0.126
PINK1,4,0.011 (active),0.0742,0.159
AK2,2,-0.0152 (active),0.234,0.191
PINK1,3,0.195 (active),0.147,0.236
PINK1,2,0.179 (active),0.189,0.262
AK2,4,-0.0623 (active),0.246,0.329
